# From PubChem BioAssay AID504467 (National Center for Advancing Translational Sciences (NCATS), 2011)
# Screen size: about 330,000 compounds; about 7,700 (2.3%) were called active. The inconclusive results got no clear call from the source; some entries with a clear call stand among them for comparison. Calls come from the whole dose curve; as a rule, active = well fitted inhibition curve with a large enough effect; inconclusive = small, poorly fitted or top-dose-only effect, or effect the other way; inactive = flat fitted curve, though single readings scatter. Where the call is inconclusive, the potency comes from a doubtful curve fit.
# Assay: qHTS screen for small molecules that inhibit ELG1-dependent DNA repair in human embryonic kidney (HEK293T) cells expressing luciferase-tagged ELG1; note: nearly all actives have a fitted effect of over 55% in size
# Details: HEK293T ELG1-luciferase reporter, luminescence, 16 h, DNA damage induced by 5-fluorouridine; activity change, negative = inhibition: at 46.1 µM (top of the series)
# Outline: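 Luminescence from the luciferase reporter, measured 30 min after ONE-Glo reagent at room temperature, was the read-out. Beforehand, 2,000 cells per well were exposed for 16 hr at 37 °C to 5-fluorouridine together with compound or vehicle.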
# % is set by controls: 0 for no effect and ±100 for the full control effect; potency is the fitted concentration of half-maximal effect.
Compound,Potency,"activity change, negative = inhibition"
COc1ccc2cc3cc(C(=O)NC4CC4)sc3nc2c1,"inconclusive: 0.517 µM [activator, full curve]",
COC(=O)c1sc2ncccc2c1OCc1ccccc1Cl,,inactive: -9.16%
O=C1C(=O)N(CC2CCCO2)C(c2ccco2)/C1=C(/O)c1ccc(F)cc1 (centres undefined),,inactive: -11.3%
COc1cc(NC(=O)c2sc3nc(C)nc(N4CCOCC4)c3c2C)cc(OC)c1OC,"inconclusive: 29.1 µM [inhibitor, single point]",
N#Cc1ccc(/C=N/NC(=O)c2ccccc2F)cc1,"inconclusive: 18.4 µM [activator, partial curve]",
COc1ccc(CNC(=O)CCS(=O)(=O)c2ccc3c(c2)CC(C)N3C(=O)C2CC2)cc1 (centres undefined),"inconclusive: 16.4 µM [inhibitor, partial curve, poor fit]",
O=C(O)CCc1nc(-c2ccccc2Cl)no1,,inactive: -0.339%
CCC(=O)c1ccc(OCC(=O)OCC(=O)NCCC2=CCCCC2)cc1,,inactive: 14.3%
CN1C(=O)c2cccc3c(S(=O)(=O)N(C)C)ccc1c23,"inconclusive: 20.6 µM [activator, partial curve, poor fit]",
CN(C)c1ccc(CNn2cnnc2SCc2ccccc2F)cc1,"inconclusive: 14.6 µM [activator, partial curve]",
COc1ccc(N2CCN(C(=O)c3ccc(N(C)S(=O)(=O)c4ccc(C)cc4)cc3)CC2)cc1,"inconclusive: 23.1 µM [inhibitor, single point]",
COCCCNC(=O)CS(=O)(=O)Cc1nc(-c2cccc(OC)c2)oc1C,"inconclusive: 12.6 µM [inhibitor, single point]",
O=C(CCc1nnc(Cc2cccc(C(F)(F)F)c2)o1)NCCc1ccccc1F,"inconclusive: 16.4 µM [activator, partial curve]",
COc1ccc2cc(C(c3nnnn3CCc3ccccc3)N3CCCC(C)C3)c(=O)[nH]c2c1 (centres undefined),,inactive: -16.8%
COCCn1c(C)cc(C(=O)COC(=O)CCS(=O)(=O)c2ccc(C)cc2)c1C,"inconclusive: 7.94 µM [activator, partial curve, poor fit]",
Cc1ccc(N(CC(=O)NC2CCCCC2)S(=O)(=O)c2c(C)nn(C)c2C)cc1,,inactive: 0%
C/C(=C\c1ccccc1)C(=O)Nc1cc(C)on1,"inconclusive: 18.4 µM [activator, single point]",
O=C(Nc1ccccc1N1CCN(C(=O)c2ccc(Cl)cc2)CC1)c1ccc([N+](=O)[O-])o1,,inactive: -26%
CCc1ccc(NC(=O)CCc2nc3cccnc3n2Cc2ccc(OC)cc2)cc1,"inconclusive: 25.9 µM [inhibitor, partial curve, poor fit]",
COc1ccccc1CC(=O)Nc1sc2c(c1C(N)=O)CCCC2,,inactive: -29.6%
Cc1cc(C(=O)CSc2nnc(-c3cccs3)n2Cc2ccccc2)c(C)n1C,"inconclusive: 23.1 µM [inhibitor, single point]",
Cn1c(=O)c2ncn(CC(=O)Nc3cccc(-c4nc5ccccc5s4)c3)c2n(C)c1=O,"inconclusive: 32.6 µM [inhibitor, single point]",
CCCc1cc(=O)[nH]c2nnc(SCC(=O)Nc3ccc(NC(C)=O)cc3)n12,"inconclusive: 10 µM [activator, partial curve, poor fit]",
Cc1cccc(NC(=O)c2nc[nH]c2C(=O)N[C@@H](Cc2ccccc2)C(=O)OCc2ccccc2)c1,,inactive: -0.922%
CC(=O)Nc1ccc(NC(=O)C(F)(F)F)cc1,,inactive: 8.76%

Compound,Potency,"activity change, negative = inhibition"
Cc1ccc(NS(=O)(=O)c2cccc(C(=O)N(C)Cc3cccs3)c2)cc1,,inactive: -14.5%
Cc1ccc(C(=O)Nc2nccs2)cc1,"inconclusive: 10.3 µM [activator, partial curve]",
Oc1ccc(-c2cccc(-c3ccc(O)cc3)n2)cc1,"inconclusive: 18.4 µM [activator, single point]",
COc1cc(NC(=O)COC(=O)/C=C/c2ccc(O)c(OC)c2)cc(OC)c1,"inconclusive: 14.6 µM [inhibitor, partial curve, poor fit]",
O=C(Nc1ccccc1)C(Cl)C(=O)c1ccccc1 (centres undefined),"inconclusive: 31.6 µM [activator, single point]",
COc1ccc(CNC(=O)CN(C(=O)CCC(=O)Nc2nccs2)c2ccc(C)cc2)cc1,,inactive: -6.48%
CC(=O)N(\C=C/C=C/C=C1\Sc2ccccc2C1=O)c1ccccc1,"inconclusive: 29.1 µM [inhibitor, single point]",
COC(=O)c1ccccc1NC(=O)C12CC3CC(C1)CC(n1cnc(Cl)n1)(C3)C2,"inconclusive: 23.1 µM [inhibitor, partial curve]",
CCc1ccc(NC(=S)NNC(=O)c2ccccc2OC(F)F)cc1,,inactive: -5.41%
O=C(CSc1nnc(Nc2ccccc2)s1)NC1CCS(=O)(=O)C1 (centres undefined),,inactive: 27.2%
CC(C)c1nnc(NC(=O)c2ccc(N3C(=O)CCC3=O)cc2)s1,"inconclusive: 20.6 µM [activator, single point]",
O=C(COn1nnc2ccc(C(F)(F)F)cc21)Nc1nnc(-c2ccccc2)o1,,inactive: 1.18%
COc1cccc2cc(/C(=N/O)c3ccccc3)oc12,"inconclusive: 25.9 µM [activator, single point]",
CCOC(=O)C1=C(C)N(C)C(=O)NC1c1cccc2ccccc12 (centres undefined),,inactive: 0%
O=C(CSc1ccc(-c2ccccc2)nn1)N1CCCc2ccccc21,"inconclusive: 20.6 µM [inhibitor, partial curve]",
O=C(Nc1ccc2c(c1)OCCO2)C1CCN(S(=O)(=O)c2cccc3nsnc23)CC1,"inconclusive: 29.1 µM [inhibitor, single point]",
Cc1ccc(/C=N/NC(=O)c2nn(C)cc2Cl)cc1,"inconclusive: 8.2 µM [activator, partial curve]",
O=C1[C@@H]2Cc3c([nH]c4ccccc34)CN2C(=O)CN1CCCO,,inactive: -4.85%
CCOC(=O)Cn1cc(/C=N/N2C(=O)C3C4C=CC(C4)C3C2=O)c2ccccc21 (centres undefined),"inconclusive: 1.16 µM [inhibitor, single point]",
O=C(CCN1C(=O)S/C(=C/c2ccccc2)C1=O)Nc1ccc(C(=O)O)c(O)c1,,inactive: 0%
COC(=O)c1sc(NC(=O)c2ccco2)nc1C,"inconclusive: 31.6 µM [activator, single point]",
CCN(CC)C(=O)CSC(Nc1ccc(F)cc1)=C(C#N)C#N,,inactive: -0.3%
Cc1c(C(=O)N2CCCCC2)c(S(=O)(=O)NCCc2ccc(Cl)cc2)c(C)n1C,,inactive: -0.655%
CN1CCc2c(sc3c2C(=O)NC(c2ccc(-c4ccc(Cl)cc4)o2)N3)C1 (centres undefined),"inconclusive: 29.1 µM [activator, partial curve, poor fit]",
COc1ccc(S(=O)(=O)Nc2ccc3c(c2)C(=O)N([C@@H](C)CO)C[C@H](C)[C@H](CN(C)S(=O)(=O)c2ccc(F)cc2)O3)cc1,active: 20.6 µM,

Compound,Potency,"activity change, negative = inhibition"
CC(C)n1ncc2c(C(=O)NCCc3ccc(F)cc3)cc(C3CC3)nc21,,inactive: -15.5%
COc1ccc(-c2noc(N3CCC(C(=O)Nc4ccc(OC)cc4OC)CC3)n2)cc1,active: 13 µM,
Oc1c(Cl)cc(Cl)cc1/C=N/c1nc(-c2ccc(Cl)cc2)cs1,,inactive: 29.2%
O=C(Cn1cnc2c(OCc3ccccc3)ncnc21)NCc1ccccn1,,inactive: -0.365%
COc1cccc(N2CCN(CC(=O)Nc3nnc(-c4ccccc4)s3)CC2)c1,"inconclusive: 10.3 µM [inhibitor, partial curve]",
FC(F)Oc1ccc(NC(=S)N2CCN(Cc3ccccc3)CC2)cc1,,inactive: -19.5%
CCCCCC1CCC(C(=O)N2CCOCC2)CC1 (centres undefined),,inactive: 0.162%
CCN=C1NN=C(c2ccc(C)cc2)CS1,"inconclusive: 3.16 µM [activator, partial curve, poor fit]",
CCn1c(SC(C)C(=O)NCC2CCCO2)nc2ccccc21 (centres undefined),,inactive: 16.8%
COc1ccccc1-n1c(CNC(=O)c2ccco2)n[nH]c1=S,,inactive: 16.6%
COc1ccc(-c2nc(SCC(=O)NCc3ccco3)c(-c3ccccc3)[nH]2)cc1OC,active: 9.2 µM,
COc1ccnc(Oc2ccc(F)cc2)c1C#N,"inconclusive: 23.1 µM [activator, single point]",
Cc1ccc(/C=N/OC(=O)c2nn(C)cc2Cl)cc1,"inconclusive: 3.66 µM [activator, full curve, poor fit]",
O=C(O)c1ccccc1OCc1nc2ccccc2s1,"inconclusive: 5.8 µM [activator, full curve]",
Cc1ccnc(NS(=O)(=O)c2ccc(NC(=O)c3ccc4c(c3)OCCO4)cc2)n1,,inactive: 3.53%
CCOc1cccc(/C=N/NC(=S)Nc2cc(S(=O)(=O)N3CCOCC3)ccc2N2CCOCC2)c1O,active: 5.8 µM,
COc1ccc(/C=C/C(=O)O)cc1S(=O)(=O)N1CCc2ccccc2C1,"inconclusive: 0.13 µM [inhibitor, single point]",
COc1ccc(C(=O)NC2CCc3ccccc32)cc1OC1CCN(C(C)C)CC1 (centres undefined),"inconclusive: 20.6 µM [activator, partial curve, poor fit]",
COc1ccc(N/C=C(\C(C)=O)c2ccc(OC)c(OC)c2)cc1OC,"inconclusive: 29.1 µM [inhibitor, single point]",
NC(=O)c1ccc2c(=O)c(O)c(-c3cc(Cl)c(N)c(Cl)c3)[nH]c2c1,,inactive: 7.43%
Cc1ccc(-c2nc(NC(=O)CSc3nnnn3-c3ccccc3)ns2)cc1,"inconclusive: 18.4 µM [activator, single point]",
O=C1NC2(CCCCC2)C(=O)N1CC(=O)N1CCc2ccccc21,,inactive: 0%
Cn1nc(C(=O)Nc2ccc(Br)cc2)cc1C(=O)Nc1ccc(Br)cc1,,inactive: -2.4%
COc1cccc(/C=C/C(=O)OCC(=O)c2cc(C)n(CC3CCCO3)c2C)c1OC (centres undefined),"inconclusive: 29.1 µM [inhibitor, single point]",

# 3 entries drawn at random from the list so far:
Compound,Potency,"activity change, negative = inhibition"
CCOc1cccc(/C=N/NC(=S)Nc2cc(S(=O)(=O)N3CCOCC3)ccc2N2CCOCC2)c1O,active: 5.8 µM,
COc1ccc(N/C=C(\C(C)=O)c2ccc(OC)c(OC)c2)cc1OC,"inconclusive: 29.1 µM [inhibitor, single point]",
Cc1ccc(/C=N/OC(=O)c2nn(C)cc2Cl)cc1,"inconclusive: 3.66 µM [activator, full curve, poor fit]",

# Of the compounds above, these have a cyano group:
Compound,Potency,"activity change, negative = inhibition"
N#Cc1ccc(/C=N/NC(=O)c2ccccc2F)cc1,"inconclusive: 18.4 µM [activator, partial curve]",
CCN(CC)C(=O)CSC(Nc1ccc(F)cc1)=C(C#N)C#N,,inactive: -0.3%
COc1ccnc(Oc2ccc(F)cc2)c1C#N,"inconclusive: 23.1 µM [activator, single point]",
